According to publication PMC3258218:
No constants are given. Whether binding was seen depends on the method and setting. In cells and extracts the contact can be indirect. Some binding calls cover weakened binding; strength is not graded here.

Chains of the proteins cited; added tags and fusions are not shown. Residues count along the entry.
UniProt P9WPC5: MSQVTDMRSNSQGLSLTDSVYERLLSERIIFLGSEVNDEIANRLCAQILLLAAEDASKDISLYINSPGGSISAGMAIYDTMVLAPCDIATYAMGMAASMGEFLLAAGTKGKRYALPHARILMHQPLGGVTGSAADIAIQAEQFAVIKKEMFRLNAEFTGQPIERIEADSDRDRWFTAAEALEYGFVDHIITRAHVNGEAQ
UniProt P9WPC3: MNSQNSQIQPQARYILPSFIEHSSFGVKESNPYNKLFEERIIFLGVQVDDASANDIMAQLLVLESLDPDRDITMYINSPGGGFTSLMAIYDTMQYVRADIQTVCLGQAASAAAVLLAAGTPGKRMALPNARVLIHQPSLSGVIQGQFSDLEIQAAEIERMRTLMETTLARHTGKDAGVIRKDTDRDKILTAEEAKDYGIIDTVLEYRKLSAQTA
UniProt P0A6G7, residues 15-207: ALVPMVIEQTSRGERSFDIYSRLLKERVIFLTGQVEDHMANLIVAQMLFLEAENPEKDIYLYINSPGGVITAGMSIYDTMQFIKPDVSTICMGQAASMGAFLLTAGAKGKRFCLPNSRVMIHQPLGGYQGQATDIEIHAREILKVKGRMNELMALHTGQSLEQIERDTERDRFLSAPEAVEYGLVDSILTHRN

Columns and labels:
[1] = molecular target: Mycobacterium tuberculosis ClpP1 with a C-terminal (His)6 tag (Mycobacterium tuberculosis) (UniProt P9WPC5); test: pull-down
[2] = molecular target: Mycobacterium tuberculosis ClpP2 with a C-terminal (His)6 tag (Mycobacterium tuberculosis) (UniProt P9WPC3); test: pull-down

Substance	binding [1]	binding [2]
endogenous E. coli ClpP of BL21(DE3) cells (from UniProt P0A6G7 15-207) (enzyme)	binds	binds
untagged E. coli ClpP (recombinant, co-produced with MTB ClpP1(His)6 or ClpP2(His)6) (from UniProt P0A6G7 15-207) (enzyme)	binds	binds
